PubChem BioAssay AID652054 (National Center for Advancing Translational Sciences (NCATS), 2013)
Out of some 360,000 compounds screened, about 9,100 (2.5%) were called active. The shares of active, inactive and inconclusive entries below differ from those in the screen. Cut-off read from the data, not from the text of the source: active = max response below about -50%; inconclusive = no clear call, values can overlap the other calls; inactive = above that.

Sequences of proteins named here, by UniProt entry; tags and fusion partners are left off.
UniProt P35462, whole entry, looked up: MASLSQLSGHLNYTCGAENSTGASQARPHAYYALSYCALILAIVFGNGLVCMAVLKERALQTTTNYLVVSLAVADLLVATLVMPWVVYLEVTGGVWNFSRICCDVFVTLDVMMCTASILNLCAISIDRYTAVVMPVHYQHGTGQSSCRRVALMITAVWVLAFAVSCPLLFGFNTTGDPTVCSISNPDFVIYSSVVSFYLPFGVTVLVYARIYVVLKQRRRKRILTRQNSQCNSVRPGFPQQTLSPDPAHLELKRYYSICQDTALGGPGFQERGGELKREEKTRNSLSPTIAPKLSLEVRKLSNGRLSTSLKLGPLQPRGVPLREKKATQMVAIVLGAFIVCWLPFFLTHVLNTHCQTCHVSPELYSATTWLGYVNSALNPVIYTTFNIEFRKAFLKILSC

Each molecule was assayed against D(3) dopamine receptor (Homo sapiens) (UniProt P35462) (assay: qHTS of D3 Dopamine Receptor Antagonist: qHTS). Details: D3R cells, DiscoveRx beta-arrestin luminescence, antagonist mode; stronger effect = lower value.
Summary of the method: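 Cells expressing the human receptor were seeded at 1500 cells/well, incubated overnight at 37 degrees C in 5% CO2, then exposed to library compounds with dopamine controls for 90 minutes at 37 degrees C before luminescent detection.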
% is set by controls: 0 for no effect and ±100 for the full control effect.

| Structure (SMILES) | max response, negative = inhibition |
| --- | --- |
| CCOC(=O)CSc1nc2sc3c(c2c(=O)n1C1CCCCC1)CCN(C)C3 | inconclusive: -31% |
| Cc1cc(C(=O)Nc2sc3c(c2C#N)CCC3)no1 | inconclusive: -30.2% |
| CC(=O)Nc1ccc(NC(=O)c2cc(-c3ccc(F)cc3C)n[nH]2)cc1 | inconclusive: -35.4% |
| Cc1ccccc1C(=O)NC1CC2CCCC(C1)N2Cc1ccccc1Cl (centres undefined) | inconclusive: -31.7% |
| CCOc1ccccc1N1CCN(Cc2cccc(OC)c2O)CC1 | active: -92.9% |
| Cn1cccc1Cc1nnc(SCC(=O)Nc2ccc3c(c2)OCCO3)n1-c1ccc(F)cc1 | inactive: 10.5% |
| CSc1ccc(Cn2nnc(C(=O)Nc3ccc(C)c(C)c3)c2N)cc1 | inconclusive: -38.7% |
| COc1cc(C(=O)OCCN2CCOCC2)ccc1O | inconclusive: -39.8% |
| CCn1cc(C(=O)NCc2ccc3c(c2)OCO3)c(=O)c2cc(F)c(N3CCN(C)CC3)cc21 | active: -70.1% |
| O=C(CSc1nc2c(c(=O)n1-c1ccc(Cl)cc1)SCC2)NCC1CCCO1 (centres undefined) | inconclusive: -48.3% |
| CC(=O)NCCNC(=O)C1Cc2c(-c3cccc(NC(C)=O)c3)ccnc2O1 (centres undefined) | inactive: -29.2% |
| O=C(COc1ccc(Cl)cc1Cl)NC(=O)N1CCCCC1 | inconclusive: -46.2% |
| COc1ccc(-n2c(=O)c3c4c(sc3n3c(=S)[nH]nc23)CCCC4)cc1 | inconclusive: -40.1% |
| COc1ccc(CN2CCCC(C(=O)N3CCCCC3)C2)cc1OC (centres undefined) | inactive: -4.19% |
| CCOC(=O)c1ccc(-c2c(-c3ccc(OC)cc3)oc(=O)c3cc(OC)c(OC)cc23)cc1F | inactive: -17.7% |
| COc1ccccc1Cc1c(C2CCCCC2)nc2ccc(Cl)cn12 | inconclusive: -38.7% |
| Cc1ccc(NC(=O)CN2C(=O)C3CCCCN3C(=O)c3ccccc32)cc1 (centres undefined) | inactive: 17.9% |
| CN1CCN(c2ccc(NC(=O)c3ccc([N+](=O)[O-])o3)cc2Cl)CC1 | inconclusive: -48.2% |
| Cc1ccc(N2CCN(CCc3nc4cc(NS(C)(=O)=O)ccc4n3C)CC2)cc1 | inactive: 0% |
| CC1CCCC(C)N1C(=O)c1ccccc1Nc1ccc(SC(F)F)cc1 (centres undefined) | inconclusive: -43.4% |
| CC(OC(=O)C1=COCCO1)C(=O)NC1CCCC(C)C1C (centres undefined) | inconclusive: -35.2% |
| O=C(COC(=O)C1CC(=O)N(C2CCCCC2)C1)c1ccc(F)cc1 (centres undefined) | active: -57.7% |
| CC(=O)c1cccc(NC(=O)Cc2coc3cc4c(cc23)CCC4)c1 | inactive: 4.07% |

Two consecutive records from above, quoted:

| Structure (SMILES) | max response, negative = inhibition |
| --- | --- |
| CC(=O)NCCNC(=O)C1Cc2c(-c3cccc(NC(C)=O)c3)ccnc2O1 (centres undefined) | inactive: -29.2% |
| O=C(COc1ccc(Cl)cc1Cl)NC(=O)N1CCCCC1 | inconclusive: -46.2% |
